In patent US20180280423A1:
Results are given in words; binding and its absence hold for the method and conditions named. For part of these data: Binding seen in cells or lysates may run through a third protein. Some results given as binding are weak or reduced against the parent protein; the word gives no strength.

Key:
[1] = biological target: EGFR extracellular domain (EGFR-ECD) (human) (UniProt P00533); test: interaction with EGFR domain constructs (method not named)
[2] = biological target: EGFR intracellular domain (EGFR-ICD) (human) (UniProt P00533); test: as above
[3] = biological target: phosphorylated EGFR (human) (UniProt P00533); test: proximity ligation assay in OECM1-Ctx^R cells, phosphorylated EGFR

Measured: binding

B1: Lymphotoxin-β (LTβ) (ligand)
chain: MGALGLEGRGGRLQGRGSLLLAVAGATSLVTLLLAVPITVLAVLALVPQDQGGLVTETADPGAQAQQGLGFQKLPEEEPETDLSPGLPAAHLIGAPLKGQGLGWETTKEQAFLTSGTQFSDAEGLALPQDGLYYLYCLVGYRGRAPPGGGDPQGRSVTLRSSLYRAGGAYGPGTPELLLEGAETVTPVLDPARRQGYGPLWYTSVGFGGLVQLRRGERVYVNISHPDMVDFARGKTFFGAVMVG
binds: all assays above
